Test results from US20240010722A1.
Results are given in words; binding and its absence hold for the method and conditions named. Some results given as binding are weak or reduced against the parent protein; the word gives no strength.

Sequences of proteins named here, by UniProt entry; tags and fusion partners are left off. Residues count along the entry.
UniProt Q61826, residues 22-405: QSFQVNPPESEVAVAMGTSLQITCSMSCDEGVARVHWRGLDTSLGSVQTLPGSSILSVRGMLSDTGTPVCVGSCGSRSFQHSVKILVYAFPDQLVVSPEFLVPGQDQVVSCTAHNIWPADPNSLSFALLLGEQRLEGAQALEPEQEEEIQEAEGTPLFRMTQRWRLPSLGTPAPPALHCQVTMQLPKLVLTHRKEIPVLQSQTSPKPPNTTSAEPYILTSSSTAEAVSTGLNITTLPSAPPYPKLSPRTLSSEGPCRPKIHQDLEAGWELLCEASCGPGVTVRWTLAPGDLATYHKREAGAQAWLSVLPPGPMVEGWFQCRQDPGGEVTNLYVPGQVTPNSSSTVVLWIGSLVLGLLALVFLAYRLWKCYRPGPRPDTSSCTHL

What was measured:
[1] = target: murine MAdCAM on cells (mouse) (UniProt Q61826); assay: flow cytometry on CHO cells
[2] = target: T1, human MAdCAM on CHO cells (human) (UniProt Q13477); assay: flow cytometry on CHO cells
T1 sequence (looked up): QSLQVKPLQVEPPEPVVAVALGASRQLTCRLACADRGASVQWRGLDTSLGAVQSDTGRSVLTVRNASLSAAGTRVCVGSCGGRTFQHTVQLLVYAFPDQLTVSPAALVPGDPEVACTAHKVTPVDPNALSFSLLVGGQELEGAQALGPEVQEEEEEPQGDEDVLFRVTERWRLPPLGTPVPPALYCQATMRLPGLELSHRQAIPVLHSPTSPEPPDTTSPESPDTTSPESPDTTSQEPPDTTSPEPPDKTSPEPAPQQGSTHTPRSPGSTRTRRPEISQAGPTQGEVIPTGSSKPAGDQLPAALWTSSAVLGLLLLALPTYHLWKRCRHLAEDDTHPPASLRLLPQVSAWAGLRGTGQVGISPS

B1: MIAB197 (antibody, V domains shown)
VH: EVQLLESGGGLVQPGGSLRLSCAASGFTFSDFWMHWVRQAPGKGLEWISYISGDSGYTNYADSVKGRFTISRDNSKNTLYLQMNSLRAEDTAVYYCARDRPYYYIMDVWGKGTTVTVSS
VL: DIQMTQSPSSLSASVGDRVTITCRASQSISRSLAWYQQKPGKAPKLLIYAASSLQSGVPSRFSGSGSGTDFTLTISSLQPEDFATYYCQQYKSYPVTFGQGTKVEIK
- binding [1]: binds
- binding [2]: binds
